Patent US20100210559A1, “TRAP-14 AS A THERAPEUTIC AGENT” (priority 2007, published 2010)
Part of at least one peptide drawing is inferred or uncertain, most often the ends. No end group written: not given here.

Key:
Balb/c mice spleen cells = assay: Th1/Th2 cytokine profiling assay (Ovalbumin restimulated spleen cells, CBA kit); assay type: cell-based, mouse; details: peptide 10 micrograms per ml; Ovalbumin 10 micrograms/ml restimulation; 72 hours
[1] = tested on: macrophages prepared from human PBMC; assay: TNF alpha production assay (LPS-stimulated macrophages, ELISA); assay type: cell-based; details: peptide 10 micrograms per ml 30 min, then lipopolysaccharide 200 ng/ml overnight
[2] = tested on: Human Peripheral Blood Mononuclear Cells (PBMC); assay: B cell proliferation assay (SAC plus Interleukin-2, 3H-thymidine); assay type: cell-based; details: peptide 10 micrograms per ml
[3] = tested on: Human Peripheral Blood Mononuclear Cells (PBMC); assay: cAMP induction assay (ELISA); assay type: cell-based; details: 10 min at 37° C., forskolin 50 micrograms per ml
HUVEC = assay: Endothelial tube formation assay; assay type: cell-based, human; details: peptide 10 micrograms per ml, 20 hours, average tubule length
Human A549 cells [4] = assay: Apoptosis induction assay (Annexin-5); assay type: cell-based; details: peptide 10 micrograms per ml, 24 hours
Human A549 cells [5] = assay: Propidium iodide cell cycle assay; assay type: cell-based; details: 24 hours, peptide 10 micrograms per ml, Propidium iodide FACS
Human A549 cells [6] = assay: Apoptosis prevention assay (C2 ceramide, Annexin-5); assay type: cell-based; details: 30 min pretreatment with peptide 10 micrograms per ml, then C2 ceramide
[7] = tested on: Primary Human endothelial cells (HUVEC); assay: Endothelial cell migration assay; assay type: cell-based; details: peptide 10 micrograms per ml, 22 hours
HIV-1IIIB = assay: HIV-1 antiviral assay (CPE reduction, MTS); assay type: cell-based; details: peptide 10 micrograms per ml, 6 days post-infection
RAW 264.7 cells = assay: Phagocytosis assay (Fluorescein-labeled Escherichia coli, flow cytometry); assay type: cell-based, Mouse; details: peptide 10 micrograms per ml, 30 min preincubation, 60 min with Fluorescein-labeled E. coli
[8] = tested on: Human Peripheral Blood Mononuclear Cells (PBMC); assay: T cell proliferation assay (PHA, 3H-thymidine); assay type: cell-based; details: peptide 10 micrograms per ml

SFLLRNPNDKYEPF-OH [TRAP-14]
IFNγ spleen cells; TH1 response (% of control) (Balb/c mice spleen cells): 99.1 % of control | IL-2 spleen cells (% of control) (Balb/c mice spleen cells): 175.3 % of control | IL-4 spleen cells; TH2 response (% of control) (Balb/c mice spleen cells): 130.0 % of control | IL-5 spleen cells; TH2 response (% of control) (Balb/c mice spleen cells): 85.9 % of control | TNF-a spleen cells; TH1 response (% of control) (Balb/c mice spleen cells): 126.2 % of control | % of LPS induction [1]: 110.0% | % of SAC/IL2 induced control [2]: 108.8% | % of Forskolin (positive control) induced cAMP formation [3]: 58.7% | % inhibition of tube formation (HUVEC): 16% | % of induction (Human A549 cells [4]): 0.3% | Cell cycle analysis G0/G1 (Human A549 cells [5]): 60.3 | Cell cycle analysis G2/M (Human A549 cells [5]): 8.0 | Cell cycle analysis S (Human A549 cells [5]): 31.7 | % prevention of ceramide induced apoptosis (Human A549 cells [6]): 18.1% | % inhibition of migration [7]: −45% | % CPE reduction in HIV-1 infected CEM-SS cells (HIV-1IIIB): 0.0% | % of control phagocytosis (RAW 264.7 cells): 105.9% | % of PHA induced Control [8]: 95.7%
